Source: US20260137700A1, “PHARMACEUTICAL COMBINATION OF PRMT5 INHIBITOR AND DNA DAMAGE-INDUCING SUBSTANCE” (SK Biopharmaceuticals Co., Ltd., priority 2022, published 2026)
Some entries share one result that the patent states for a list of compounds.

What follows are compounds tested on cancer cell lines of Table 2 (A549, A549/CR, A549/PR, CAPAN-1, NCI-H1048, MDA-MB-231, Mia PaCa-2, SNU-324, OVCAR3, PA-1, PANC-1, U-87 MG) (assay: Cell viability assay (WST) with combination synergy analysis (Bliss score)). Conditions: combination with various DNA damage inducers, FIGS. 1 to 25; score of 10 or greater indicates strong synergy, -10 or less antagonism.
Format: cell-based, human
Description: Most cell lines were obtained from the American Type Culture Collection (ATCC) or the Korean Cell Line Bank (KCLB). Combination experiments in cisplatin-resistant and paclitaxel-resistant cell lines were performed at the Asan Preclinical Evaluation center for cancer therapeutiX of Asan Medical Center, Seoul. All cell lines were maintained in appropriate growth medium for the cell line in 100-pi dishes oRT75 (75 cm2) flasks, cultured at 37° C. with 5% CO2, and passaged every 3-4 days. Growth medium conditions and cell line information are listed in Table 2, and the cells were counted using Countess (Invitrogen) to obtain the number of viable cells. Mutation and HRD status by cell type are described in Table 3.
The next day, compound-87 was diluted 1/2 to 1/4 to a concentration of 20 μM to 0.002 μM and treated at a set concentration range, and the co-administered drug was diluted 1/2 to 1/3 to a concentration of 100 μM to 0.00046 μM and treated at a 1:1 (v/v) ratio. Finally, the treatment ratio of compound-87 and the co-administered substance was between 1:20000 and 1:0.00015, and in clinical practice, compound-87: drug to be co-administered can be treated at a ratio of 1:10000 to 1:0.0001.
PANC-1 (wild-type BRCA1/BRCA2) pancreatic cancer cells were treated with compound-87 at concentrations of […], and E7016, a PARP inhibitor as a co-administered agent at concentration of 0.078, 0.156, 0.313, 0.625, 1.25, 2.5, 5, or 10 μM (FIG. 25). Cell culture was terminated on days 7 to 9, and cell viability and synergistic effect were evaluated for each combination of concentrations.
Cell viability was measured by a colorimetric assay using water-soluble tetrazolium salt (WST). […]
Results are normalized to DMSO-treated groups as 100% and expressed as the percent of viable cells upon compound addition. […]
The synergy of each compound was analyzed using Combenefit software (Cambridge Research UK, Cambridge Institute, University of Cambridge, United Kingdom), and synergy was evaluated by using Blliss (Ref: Di Veroli et al., 2016, Bioinformatics 32(18):2866-2868). […]
For `CN1CCC(Oc2ccc3c(c2)OCCN(C[C@H](O)CN2CCc4ccccc4C2)C3=O)CC1` [Compound-87, 4-[(2R)-3-(3,4-dihydro-1H-isoquinolin-2-yl)-2-hydroxy-propyl]-8-[(1-methyl-4-piperidyl)oxy]-2,3-dihydro-1,4-benzoxazepin-5-one], the “Bliss score (drug-drug synergy)” value was greater than 10. In the case of `CN1CCC(Oc2ccc3c(c2)OC(C)(C)CN(C[C@H](O)CN2CCc4ccccc4C2)C3=O)CC1` [Compound-112, 4-[(2R)-3-(3,4-dihydro-1H-isoquinolin-2-yl)-2-hydroxy-propyl]-2,2-dimethyl-8-[(1-methyl-4-piperidyl)oxy]-3H-1,4-benzoxazepin-5-one], the “Bliss score (drug-drug synergy)” value is reported as greater than 10. For `O=C1c2ccc(O[C@@H]3CCN(C4COC4)C3)cc2OCCN1C[C@H](O)CN1CCc2ccccc2C1` [Compound-271, 4-[(2R)-3-(3,4-dihydro-1H-isoquinolin-2-yl)-2-hydroxy-propyl]-8-[(3R)-1-(oxetan-3-yl)pyrrolidin-3-yl]oxy-2,3-dihydro-1,4-benzoxazepin-5-one], the “Bliss score (drug-drug synergy)” value was greater than 10.
